In article PMC7994887:
No constants are given. Whether binding was seen depends on the method and setting. For some of these results: Binding seen in cells or lysates may run through a third protein. Some binding calls cover weakened binding; strength is not graded here. Where a sequence is shown, tags or fusion partners need not be part of it.

T1: AtSAUR32 (SMALL AUXIN UP RNA32 protein), pGBKT7 bait fusion (Arabidopsis thaliana) (UniProt Q9ZUZ3)
T1 sequence: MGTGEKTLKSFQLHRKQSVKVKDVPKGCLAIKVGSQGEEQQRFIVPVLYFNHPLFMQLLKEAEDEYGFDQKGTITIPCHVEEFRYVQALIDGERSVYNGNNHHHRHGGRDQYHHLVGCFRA

T2: AtSAUR32 fused with N-YFP (BiFC construct) (Arabidopsis thaliana) (UniProt Q9ZUZ3)
T2 sequence: T1 sequence

B1: HAI1 (HIGHLY ABA-INDUCED 1), clade-A PP2C, pGADT7 prey fusion (protein, UniProt Q9FIF5 1-413)
chain: MAEICYENETMMIETTATVVKKATTTTRRRERSSSQAARRRRMEIRRFKFVSGEQEPVFVDGDLQRRRRRESTVAASTSTVFYETAKEVVVLCESLSSTVVALPDPEAYPKYGVASVCGRRREMEDAVAVHPFFSRHQTEYSSTGFHYCGVYDGHGCSHVAMKCRERLHELVREEFEADADWEKSMARSFTRMDMEVVALNADGAAKCRCELQRPDCDAVGSTAVVSVLTPEKIIVANCGDSRAVLCRNGKAIALSSDHKPDRPDELDRIQAAGGRVIYWDGPRVLGVLAMSRAIGDNYLKPYVISRPEVTVTDRANGDDFLILASDGLWDVVSNETACSVVRMCLRGKVNGQVSSSPEREMTGVGAGNVVVGGGDLPDKACEEASLLLTRLALARQSSDNVSVVVVDLRRDT
B2: AIP1 (AKT1-Interacting Phosphatase1), clade-A PP2C, pGADT7 prey fusion (protein, UniProt Q9LNW3 1-442)
chain: MADICYEDETSACESRPLWSSRKWRIGVQRFRMSPSEMNPTASTTEEEDKSEGIYNKRNKQEEYDFMNCASSSPSQSSPEEESVSLEDSDVSISDGNSSVNDVAVIPSKKTVKETDLRPRYGVASVCGRRRDMEDAVALHPSFVRKQTEFSRTRWHYFGVYDGHGCSHVAARCKERLHELVQEEALSDKKEEWKKMMERSFTRMDKEVVRWGETVMSANCRCELQTPDCDAVGSTAVVSVITPEKIIVANCGDSRAVLCRNGKAVPLSTDHKPDRPDELDRIQEAGGRVIYWDGARVLGVLAMSRAIGDNYLKPYVTSEPEVTVTDRTEEDEFLILATDGLWDVVTNEAACTMVRMCLNRKSGRGRRRGETQTPGRRSEEEGKEEEEKVVGSRKNGKRGEITDKACTEASVLLTKLALAKHSSDNVSVVVIDLRRRRKRHVA
B3: HAI1 fused with C-YFP (BiFC construct) (protein, UniProt Q9FIF5 1-413)
chain: B1 chain
B4: AIP1 fused with C-YFP (BiFC construct) (protein, UniProt Q9LNW3 1-442)
chain: B2 chain

Assays:
[1] = biological target: T1, AtSAUR32 (SMALL AUXIN UP RNA32 protein), pGBKT7 bait fusion (Arabidopsis thaliana); test: two-hybrid; bait in pGBKT7, prey in pGADT7, yeast strain AH109; growth on SD/-Leu-Trp-His-Ade dropout medium, 30°C for 3 days
[2] = biological target: T2, AtSAUR32 fused with N-YFP (BiFC construct) (Arabidopsis thaliana); test: split reporter; BiFC with N-YFP and C-YFP fusions co-infiltrated into Nicotiana benthamiana by Agrobacterium; confocal microscopy 48 h after co-infiltration

Binder | binding [1] | binding [2]
B1 | binds | –
B2 | binds | –
B3 | – | binds
B4 | – | binds
